Results as given in patent US20090122237A1, “POLYMER FILM, METHOD FOR PRODUCING POLYMER FILM, OPTICAL FILM AND POLARIZING PLATE AND LIQUID CRYSTAL DISPLAY DEVICE USING THE SAME” (FUJIFILM Corporation, priority 2005, published 2009).

Assay: Rth raising agent, data of the formula (1) (Rth(a)−Rth(0))/a
Details: Rth at 550 nm; a = % by mass to 100 parts cellulose acylate

Q: For `COc1ccc(Nc2nc(Nc3cccc(C)c3)nc(Nc3cccc(C)c3)n2)cc1` [II-334], which “data of the formula (1) (Rth(a)−Rth(0))/a of the Rth raising agent” value is on record?
A: Its value is 28.

Q: For `CCCCCCCCOC(=O)CCc1cc(-n2n3c4ccc(Cl)cc4n23)c(O)c(C(C)(C)C)c1` [IV-16], which “data of the formula (1) (Rth(a)−Rth(0))/a of the Rth raising agent” value is on record?
A: Its value is 18.
